Out of some 300,000 compounds screened, about 5,400 (1.8%) were called active. The shares of active, inactive and inconclusive entries below differ from those in the screen. Calls come from the whole dose curve; tested in HEK293 cells. Where the call is inconclusive, the potency comes from a doubtful curve fit.
Experiment: qHTS for inhibitors of binding or entry into cells for Marburg Virus
Settings: Marburg virus pseudotyped entry inhibition, cell reporter; activity change, negative = inhibition: at 37.8 µM (top of the series) unless noted
% is set by controls: 0 for no effect and ±100 for the full control effect; potency is the fitted concentration of half-maximal effect.

| Structure (SMILES) | Potency | activity change, negative = inhibition |
| --- | --- | --- |
| CCOC(=O)c1c(NC(=S)NCC2CCCO2)sc(C)c1C (stereo not drawn) | inconclusive: 22.4 µM [activator, single point] | – |
| O=S1(=O)C=C(SCc2ccc(Cl)c(Cl)c2)Nc2ccccc21 | inconclusive: 14.1 µM [inhibitor, single point] | – |
| CCN(CC)c1ccc(NC(=O)c2ccco2)cc1 | inconclusive: 8.2 µM [inhibitor, partial curve, poor fit] | – |
| COc1ccccc1C1/C(=C(\O)c2ccc3c(c2)OCCO3)C(=O)C(=O)N1CCCn1ccnc1 (stereo not drawn) | inconclusive: 5.62 µM [activator, single point] | – |
| Cn1c(NC(=O)C[n+]2cc(-c3ccc(Cl)cc3)n3c2CCC3)cc(=O)n(C)c1=O | – | inactive: -16.4% |
| Cc1ccc(C(C)C)c(OCCN2CCc3ccccc3C2)c1 | inconclusive: 35.5 µM [inhibitor, single point] | – |
| COc1ccc(C(=O)O/N=C(\N)Cc2cccs2)cc1OC | inconclusive: 10 µM [inhibitor, partial curve, poor fit] | – |
| Cc1nn(C)cc1/C=N/NC(=S)Nc1ccc(Cl)cc1Cl | inconclusive: 2.82 µM [activator, partial curve, poor fit] | – |
| CCOc1cccc(NC(=O)CC#N)c1 | inconclusive: 0.316 µM [activator, partial curve, poor fit] | – |
| Cc1cc(C)c2c(CC(=O)Nc3ccc(S(=O)(=O)Nc4ncccn4)cc3)coc2c1 | inconclusive: 5.62 µM [inhibitor, single point] | – |
| O=C(/C=C/c1ccccc1[N+](=O)[O-])N1CCc2ccccc2C1 | – | inactive: -4.22% [at 46.1 µM] |
| COc1cccc(CN(C(=O)c2cc3ccccc3oc2=O)C2CCS(=O)(=O)C2)c1 (stereo not drawn) | inconclusive: 12.6 µM [activator, single point] | – |
| C/C=C(/C)C(=O)O[C@@H]1c2c(ccc3ccc(=O)oc23)OC(C)(C)[C@@H]1OC(=O)/C(C)=C\C | inconclusive: 32.6 µM [inhibitor, single point] | – |
| Cc1n[nH]c(=S)c2nn(-c3cccc(Cl)c3)c(C)c12 | – | inactive: -6.47% |
| O=C(NNS(=O)(=O)c1ccc(F)cc1)c1sccc1-n1cccc1 | inconclusive: 7.08 µM [activator, partial curve, poor fit] | – |
| O=C(Nc1ccccc1)c1nc2ccccc2s1 | inconclusive: 32.6 µM [inhibitor, single point] | – |
| COc1ccccc1CNC(=O)C1CCC(CNS(=O)(=O)c2ccc(C)cc2)CC1 (stereo not drawn) | inconclusive: 7.08 µM [inhibitor, partial curve, poor fit] | – |
| CCN(CC)c1ccc2cc(-c3nc4ccccc4[nH]3)c(=O)oc2c1 | inconclusive: 1.58 µM [inhibitor, partial curve, poor fit] | – |
| COc1cccc(/C=N/NC(=O)CN2CC(c3ccccc3)CC2=O)c1O (stereo not drawn) | inconclusive: 11.6 µM [inhibitor, partial curve, poor fit] | – |
| NC1=NC(=O)C(Cc2ccccc2)S1 (stereo not drawn) | – | inactive: 2.71% [at 46.1 µM] |
| O=C(Cn1nc(C(F)(F)F)c2c1CCC2)Nc1ccc(Cl)cc1 | – | inactive: -29.4% [at 46.1 µM] |
| CCOc1cc2c(cc1OCC)C(c1ccc(OC)c(OC)c1)N(c1ccc(C(=O)O)cc1)C(=O)C2 (stereo not drawn) | inconclusive: 3.16 µM [activator, single point] | – |

| Structure (SMILES) | Potency | activity change, negative = inhibition |
| --- | --- | --- |
| Cc1ccc(S(=O)(=O)CCC(=O)OCC(=O)c2c[nH]c3ccccc23)cc1 | inconclusive: 1 µM [activator, partial curve] | – |
| CS(=O)(=O)c1ccc2nc(NC(=O)CCS(=O)(=O)c3ccccc3)sc2c1 | inconclusive: 35.5 µM [inhibitor, partial curve, poor fit] | – |
| Cc1ccc(C2CC(c3ccccc3)=NN2C(=S)Nc2ccccc2)o1 (stereo not drawn) | inconclusive: 1.41 µM [inhibitor, full curve] | – |
| CCOC(=O)CSc1nc2c(sc(=S)n2-c2ccccc2OC)c(=O)n1-c1ccccc1OC | inconclusive: 0.708 µM [inhibitor, full curve, poor fit] | – |
| Cc1ccc2cc(CN(CCN(C)C)C(=O)Nc3ccc(Cl)cc3)c(=O)[nH]c2c1 | inconclusive: 7.94 µM [inhibitor, partial curve] | – |
| CCCN1CCN(CC(=O)Nc2nc3ccccc3s2)CC1 | – | inactive: -4.49% [at 46.1 µM] |
| COC(=O)c1ccccc1NC(=O)CSc1nc(-c2ccco2)cc(C(F)(F)F)n1 | inconclusive: 5.17 µM [inhibitor, full curve, poor fit] | – |
| COc1ccccc1N(C)S(=O)(=O)c1ccc(C(=O)NC(C)(C)C)cc1 | inconclusive: 1.26 µM [inhibitor, partial curve, poor fit] | – |
| O=C(N/N=C/C=C/c1ccc2c(c1)OCO2)C(O)c1ccccc1 (stereo not drawn) | – | inactive: -11.4% |
| Cc1ccc(Oc2ccc(OCC(=O)NC(CC(C)C)C(=O)O)cc2)cc1 (stereo not drawn) | inconclusive: 2.51 µM [activator, single point] | – |
| CCOC(=O)Cn1nc(NC(=O)c2ccc(C(=O)OC)cc2)cc1C | – | inactive: -25.4% |
| Cc1ccccc1CN1CCc2c(OCC(=O)N3CCCc4ccccc43)cccc2C1=O | inconclusive: 20.6 µM [inhibitor, single point] | – |
| COc1ccc([N+](=O)[O-])cc1NC(=O)c1ccc(N(Cc2ccccc2Cl)S(C)(=O)=O)cc1 | inconclusive: 3.98 µM [activator, single point] | – |
| O=C(NCc1ccccc1)c1nc2ccccc2s1 | – | inactive: -1.06% |
| c1ccc2c(c1)NCCS2 | inconclusive: 35.5 µM [inhibitor, single point] | – |
| CCN(Cc1ccccc1)C(=O)CN1C(=O)COc2ccc(S(=O)(=O)N(CC)CC)cc21 | – | inactive: 14.6% [at 46.1 µM] |
| Cc1cccc(NC(=S)NNC(=S)NC2CCCCC2)c1C | – | inactive: 24.6% [at 46.1 µM] |
| CCc1ccccc1N(CC(=O)O)S(C)(=O)=O | – | inactive: -0.192% [at 46.1 µM] |
| O=C(NCc1ccccc1Cl)c1cc(=O)[nH]c2ccc(S(=O)(=O)N3CCCCC3)cc12 | – | inactive: 4.38% [at 46.1 µM] |
| COc1ccc(C2Nc3ccccc3C(=O)N2Cc2ccco2)cc1COc1ccccc1F (stereo not drawn) | inconclusive: 35.5 µM [inhibitor, single point] | – |
| CS(=O)(=O)Nc1ccc(C(=O)NC2CCCCC2)cc1 | inconclusive: 0.562 µM [activator, full curve, poor fit] | – |

Single entries from the list:
activity change, negative = inhibition with `CCOC(=O)Cn1nc(NC(=O)c2ccc(C(=O)OC)cc2)cc1C` is entered as inactive: -25.4%
Potency with `COc1ccccc1N(C)S(=O)(=O)c1ccc(C(=O)NC(C)(C)C)cc1` is entered as inconclusive: 1.26 µM [inhibitor, partial curve, poor fit]
Potency with `CS(=O)(=O)c1ccc2nc(NC(=O)CCS(=O)(=O)c3ccccc3)sc2c1` is entered as inconclusive: 35.5 µM [inhibitor, partial curve, poor fit]
Potency with `COc1ccc(C2Nc3ccccc3C(=O)N2Cc2ccco2)cc1COc1ccccc1F` (stereo not drawn) is entered as inconclusive: 35.5 µM [inhibitor, single point]
